Measured values: patent publication US20250376495A1
Results are given in words; binding and its absence hold for the method and conditions named. Some entries that bind do so weakly or less than the wild type.

The chains behind the UniProt entries cited, without tags or fusion partners. Where a name states a change or a piece, a line headed by the entry shows the natural chain unless it says otherwise. A line that says so, or that is headed by a name, gives the form on record, which may keep a tag or linker.
Ube2W V30K/D67K/C91K (Q96B02, form named): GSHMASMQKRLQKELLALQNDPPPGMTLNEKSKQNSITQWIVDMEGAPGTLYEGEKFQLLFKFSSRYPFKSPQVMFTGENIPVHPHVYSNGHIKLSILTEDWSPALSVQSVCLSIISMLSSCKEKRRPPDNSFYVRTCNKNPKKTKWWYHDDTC
UniProt P19474: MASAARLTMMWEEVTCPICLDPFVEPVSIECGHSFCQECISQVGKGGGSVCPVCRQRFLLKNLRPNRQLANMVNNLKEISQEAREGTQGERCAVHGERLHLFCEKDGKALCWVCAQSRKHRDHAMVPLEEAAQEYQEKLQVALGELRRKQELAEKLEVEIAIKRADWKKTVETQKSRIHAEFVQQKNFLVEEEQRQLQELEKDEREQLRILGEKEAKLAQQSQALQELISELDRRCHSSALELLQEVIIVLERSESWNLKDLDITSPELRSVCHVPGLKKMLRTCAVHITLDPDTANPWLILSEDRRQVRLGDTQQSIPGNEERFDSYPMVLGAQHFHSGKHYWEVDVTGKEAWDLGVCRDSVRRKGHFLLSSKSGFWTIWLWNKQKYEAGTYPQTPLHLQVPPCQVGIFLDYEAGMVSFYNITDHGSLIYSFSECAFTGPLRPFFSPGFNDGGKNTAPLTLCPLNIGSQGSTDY

Biological target: Ube2W V30K/D67K/C91K (UniProt Q96B02)
Experiment: X-ray crystal structure of the complex

binding: binds
Substance: TRIM21 RING domain (from UniProt P19474 1-85) (enzyme)
